Reference: PubChem BioAssay AID493191 (Broad Institute, 2011)
About 330 (25%) of roughly 1,300 compounds were called active. How the calls were made is not given here. Only a part is listed here, and it is no random draw. Potency and affinity values are given separately.

Assay: MALME3 melanoma cell viability loss, dose response, orthogonal assay for MITF inhibitor project, CellTiter-Glo, cherry-picked (AID 493191)
Conditions: CellTiter-Glo luminescence, 24 h; at 35 µM (top of the series)
With `Cc1cc(C)cc(N2C(=O)NC(=O)/C(=C\c3cccn3-c3ccccc3)C2=O)c1` the activity change, negative = inhibition was inactive: -30%. For `O=C1NC(=S)NC(=O)C1=Cc1cccc2cc3ccccc3cc12`, the activity change, negative = inhibition was inactive: -17.5%. In the case of `O=C1NC(=O)C(=Cc2ccc(-c3ccc(Cl)cc3)o2)C(=O)N1`, the activity change, negative = inhibition was inactive: -13.6%. For `CCCCCn1c(=O)c(C(=O)Nc2cnccn2)c(O)c2ccccc21`, the activity change, negative = inhibition was inactive: -9.54%. With `CCOC(=O)c1c(-n2c(C)cc(C=C3C(=O)NC(=S)NC3=O)c2C)sc2c1CCCC2` the activity change, negative = inhibition was inactive: -8.46%. With `C=CCN1C(=O)NC(=O)/C(=C/C=C/c2ccccc2)C1=O` the activity change, negative = inhibition was inactive: 7.07%. For `O=C1NC(=O)C(=Cc2ccc(-c3cc(Cl)ccc3[N+](=O)[O-])o2)C(=O)N1`, the activity change, negative = inhibition was inactive: -5.83%. For `C=CCN1C(=O)/C(=C/c2cc(C)n(-c3cccnc3)c2C)C(=O)NC1=S`, the activity change, negative = inhibition was inactive: 0.406%. In the case of `O=C(Nc1ccc(OC(=O)N2CCCCC2)cc1)N1CCOCC1`, the activity change, negative = inhibition was inactive: 2.72%. For `CCOc1ccc(-c2cc(C)[n+](CCO)c(-c3ccc(OCC)cc3)c2)cc1`, the activity change, negative = inhibition was inactive: -4.18%. In the case of `CC(C)n1c(O)c(C2c3cc(Cl)ccc3Oc3[nH]c(=O)n(C(C)C)c(=O)c32)c(=O)[nH]c1=O` (configuration not stated), the activity change, negative = inhibition was inactive: -7.76%. For `CCc1ccc(N2C(=O)NC(=O)/C(=C\C=C\c3ccco3)C2=O)cc1`, the activity change, negative = inhibition was inactive: -11%. In the case of `CCOC(=O)Cn1cc([N+](=O)[O-])nc1[N+](=O)[O-]`, the activity change, negative = inhibition was inactive: -44%. In the case of `O=C1NC(=O)N(CCc2ccc(F)cc2)C(=O)/C1=C\C=C\c1ccccc1`, the activity change, negative = inhibition was inactive: 46.9%. With `CN(C)c1ccc(/C=C2/C(=N\O)C3CCN2CC3)cc1` the activity change, negative = inhibition was inactive: -4.01%. In the case of `O=C1NC(=O)N(c2ccccc2)C(=O)/C1=C/C=C/c1ccco1`, the activity change, negative = inhibition was inactive: -10.8%. In the case of `Cc1cc(C)cc(N2C(=O)NC(=O)/C(=C\C=C\c3ccco3)C2=O)c1`, the activity change, negative = inhibition was inactive: -1%. For `O=C1NC(=O)N(Cc2ccccc2)C(=O)/C1=C/C=C/c1ccco1`, the activity change, negative = inhibition was inactive: -12%. For `Cc1cccc(N2C(=O)NC(=O)/C(=C\c3cccn3-c3ccc(Cl)cc3)C2=O)c1`, the activity change, negative = inhibition was inactive: -36.2%. For `CC(C)c1oc(=O)cc2c1[C@@H](O)[C@H]1OC(=O)[C@@]3(C)C[C@@H](O)[C@@H](O)[C@@]2(C)C13` (some centres not stated), the activity change, negative = inhibition was inactive: -19.5%. With `O=C1NC(=S)NC(=O)C1=Cc1cccn1-c1ccc(O)cc1` the activity change, negative = inhibition was inactive: -19%. With `Cc1ccc(N2C(=O)NC(=O)/C(=C/C=C/c3ccco3)C2=O)cc1` the activity change, negative = inhibition was inactive: -19.4%. For `CCCCCCn1c(=O)c(C(=O)Nc2cnccn2)c(O)c2ccccc21`, the activity change, negative = inhibition was inactive: -5.24%. With `C/C(=C\c1ccc(N(C)C)cc1)[N+](=O)[O-]` the activity change, negative = inhibition was inactive: -15.3%. With `CC(C)N1C(=O)/C(=C/C=C/c2ccco2)C(=O)N(Cc2ccco2)C1=O` the activity change, negative = inhibition was inactive: -25.8%. With `Cc1ccc(-c2cc(-c3ccc(C)cc3)[n+](C)o2)cc1` the activity change, negative = inhibition was inactive: -14.8%. In the case of `O=C(c1ccccc1)C(CN1CCCC1)c1ccccc1` (configuration not stated), the activity change, negative = inhibition was inactive: -12.5%. In the case of `NC(Cc1nc2ccccc2[nH]1)c1ccc(Cl)cc1` (configuration not stated), the activity change, negative = inhibition was inactive: 0.031%. With `O=C1NC(=O)N(Cc2ccccc2)C(=O)/C1=C\C=C\c1ccco1` the activity change, negative = inhibition was inactive: -5.11%. In the case of `Cc1cc(C(=O)Nc2ccccc2)nn1C(C)(C)C`, the activity change, negative = inhibition was inactive: 2.03%. With `CN1C(=O)/C(=C/c2cccn2-c2ccc3ccccc3c2)C(=O)NC1=S` the activity change, negative = inhibition was inactive: -28.2%. In the case of `CC(C)c1ccc(N2C(=O)NC(=O)/C(=C/C=C/c3ccco3)C2=O)cc1`, the activity change, negative = inhibition was inactive: 6.53%. For `O=C1NC(=O)N(Cc2ccccc2Cl)C(=O)/C1=C/c1cccs1`, the activity change, negative = inhibition was inactive: -24.6%. In the case of `O=C1NC(=O)N(Cc2ccc(F)cc2)C(=O)/C1=C\C=C\c1ccco1`, the activity change, negative = inhibition was inactive: -11.3%. In the case of `CC[n+]1c(/C=C/N(C)c2ccccc2)sc2ccc(Cl)cc21`, the activity change, negative = inhibition was inactive: -37.5%. In the case of `Cc1cccc(N2C(=O)NC(=O)/C(=C\C=C\c3ccco3)C2=O)c1`, the activity change, negative = inhibition was inactive: -18.2%. With `Cc1ccc(N2C(=O)NC(=O)/C(=C\C=C\c3ccco3)C2=O)cc1` the activity change, negative = inhibition was inactive: -27.9%. With `O=c1[nH]c(=S)[nH]c(O)c1N=Nc1ccc(S(=O)(=O)N2CCc3ccccc32)cc1` the activity change, negative = inhibition was inactive: -12.2%. With `Cc1cc(C(=O)Nc2ccc3c(c2)OCCO3)nn1C(C)(C)C` the activity change, negative = inhibition was inactive: -3.19%. For `COc1cc2c(cc1/C=C/[N+](=O)[O-])OCO2`, the activity change, negative = inhibition was inactive: -33%. For `NCCc1ccc(OCc2ccccc2)c(OCc2ccccc2)c1`, the activity change, negative = inhibition was -82.1%. For `COc1ccc(-c2cc(-c3ccccc3)[n+](C)c(-c3ccccc3)c2)cc1`, the activity change, negative = inhibition was inactive: -39.3%.
